We go through 37 targets from the supplement of paper PMC12067093, “Discovery and optimisation of a covalent ligand for TRIM25 and its application to targeted protein ubiquitination” (Chemical Science, 2025).

The chains behind the UniProt entries cited, without tags or fusion partners. Where a name states a change or a piece, a line headed by the entry shows the natural chain unless it says otherwise.
UniProt Q8ND30: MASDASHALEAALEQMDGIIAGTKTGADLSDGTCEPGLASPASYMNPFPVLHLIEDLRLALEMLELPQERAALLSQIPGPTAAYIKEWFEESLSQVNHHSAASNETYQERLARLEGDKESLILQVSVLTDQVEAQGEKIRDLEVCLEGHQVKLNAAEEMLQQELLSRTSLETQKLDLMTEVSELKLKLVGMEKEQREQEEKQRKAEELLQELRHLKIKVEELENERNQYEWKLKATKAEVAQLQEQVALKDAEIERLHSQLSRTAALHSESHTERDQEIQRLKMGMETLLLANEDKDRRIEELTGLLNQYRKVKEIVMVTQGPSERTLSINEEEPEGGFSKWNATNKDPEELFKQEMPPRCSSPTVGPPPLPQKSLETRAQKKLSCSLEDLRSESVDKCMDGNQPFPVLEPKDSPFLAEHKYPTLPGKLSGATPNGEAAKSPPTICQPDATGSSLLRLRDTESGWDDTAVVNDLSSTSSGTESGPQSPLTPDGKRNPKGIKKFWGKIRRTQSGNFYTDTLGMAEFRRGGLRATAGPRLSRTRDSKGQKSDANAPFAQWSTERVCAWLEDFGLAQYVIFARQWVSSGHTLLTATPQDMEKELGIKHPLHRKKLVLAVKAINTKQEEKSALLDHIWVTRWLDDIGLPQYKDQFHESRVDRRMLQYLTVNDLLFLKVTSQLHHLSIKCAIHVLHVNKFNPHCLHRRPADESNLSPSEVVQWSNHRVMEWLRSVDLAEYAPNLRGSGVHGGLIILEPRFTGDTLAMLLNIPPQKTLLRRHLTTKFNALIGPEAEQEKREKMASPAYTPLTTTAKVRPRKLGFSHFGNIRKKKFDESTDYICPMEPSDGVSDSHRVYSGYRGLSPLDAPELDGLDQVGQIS
UniProt Q96CD2: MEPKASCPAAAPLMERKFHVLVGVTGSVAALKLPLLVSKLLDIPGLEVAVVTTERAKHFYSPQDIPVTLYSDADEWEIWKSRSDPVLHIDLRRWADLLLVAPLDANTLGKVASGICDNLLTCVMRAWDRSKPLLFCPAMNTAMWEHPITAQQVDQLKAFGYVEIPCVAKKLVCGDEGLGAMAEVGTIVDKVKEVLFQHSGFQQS
UniProt Q14181: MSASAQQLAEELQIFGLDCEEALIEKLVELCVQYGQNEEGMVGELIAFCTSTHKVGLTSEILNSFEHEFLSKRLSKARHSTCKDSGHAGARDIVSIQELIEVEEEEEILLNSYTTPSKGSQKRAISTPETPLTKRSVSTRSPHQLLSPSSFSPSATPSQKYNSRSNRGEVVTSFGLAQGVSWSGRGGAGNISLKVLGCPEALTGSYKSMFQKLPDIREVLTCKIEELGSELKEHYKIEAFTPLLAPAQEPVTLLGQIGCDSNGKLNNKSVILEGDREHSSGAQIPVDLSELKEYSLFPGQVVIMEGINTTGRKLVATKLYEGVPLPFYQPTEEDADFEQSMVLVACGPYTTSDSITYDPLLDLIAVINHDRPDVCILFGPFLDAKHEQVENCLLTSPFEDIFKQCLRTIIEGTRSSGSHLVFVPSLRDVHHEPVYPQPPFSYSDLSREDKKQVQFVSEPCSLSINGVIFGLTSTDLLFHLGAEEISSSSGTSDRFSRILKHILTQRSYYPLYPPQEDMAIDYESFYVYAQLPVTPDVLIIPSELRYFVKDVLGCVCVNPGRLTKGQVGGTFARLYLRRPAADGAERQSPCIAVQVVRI
UniProt Q99575: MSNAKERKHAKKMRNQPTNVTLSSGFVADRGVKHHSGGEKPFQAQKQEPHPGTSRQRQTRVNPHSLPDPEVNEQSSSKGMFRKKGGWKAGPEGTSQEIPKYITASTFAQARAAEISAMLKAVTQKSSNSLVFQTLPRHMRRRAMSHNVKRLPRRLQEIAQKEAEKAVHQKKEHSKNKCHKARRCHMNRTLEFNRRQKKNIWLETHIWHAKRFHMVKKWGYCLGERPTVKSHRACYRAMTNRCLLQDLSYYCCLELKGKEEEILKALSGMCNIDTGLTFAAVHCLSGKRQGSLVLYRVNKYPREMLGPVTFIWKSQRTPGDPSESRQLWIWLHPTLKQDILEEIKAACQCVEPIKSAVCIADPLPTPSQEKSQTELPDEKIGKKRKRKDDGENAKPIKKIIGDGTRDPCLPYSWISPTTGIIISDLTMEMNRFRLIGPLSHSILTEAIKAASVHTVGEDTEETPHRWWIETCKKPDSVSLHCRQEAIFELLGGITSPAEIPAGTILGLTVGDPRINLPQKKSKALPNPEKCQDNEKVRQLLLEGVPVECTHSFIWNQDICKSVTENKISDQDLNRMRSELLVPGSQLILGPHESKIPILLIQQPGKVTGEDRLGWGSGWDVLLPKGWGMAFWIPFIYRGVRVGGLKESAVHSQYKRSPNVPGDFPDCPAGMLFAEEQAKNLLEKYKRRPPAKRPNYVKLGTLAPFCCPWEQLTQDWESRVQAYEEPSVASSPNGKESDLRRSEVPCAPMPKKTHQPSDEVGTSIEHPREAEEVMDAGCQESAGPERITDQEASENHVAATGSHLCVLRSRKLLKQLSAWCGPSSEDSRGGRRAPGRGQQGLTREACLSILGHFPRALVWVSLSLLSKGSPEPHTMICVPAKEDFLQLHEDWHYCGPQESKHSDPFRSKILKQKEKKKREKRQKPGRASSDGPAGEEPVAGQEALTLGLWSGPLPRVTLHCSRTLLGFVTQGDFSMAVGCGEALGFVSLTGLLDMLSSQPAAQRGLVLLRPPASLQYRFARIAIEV
UniProt P49005: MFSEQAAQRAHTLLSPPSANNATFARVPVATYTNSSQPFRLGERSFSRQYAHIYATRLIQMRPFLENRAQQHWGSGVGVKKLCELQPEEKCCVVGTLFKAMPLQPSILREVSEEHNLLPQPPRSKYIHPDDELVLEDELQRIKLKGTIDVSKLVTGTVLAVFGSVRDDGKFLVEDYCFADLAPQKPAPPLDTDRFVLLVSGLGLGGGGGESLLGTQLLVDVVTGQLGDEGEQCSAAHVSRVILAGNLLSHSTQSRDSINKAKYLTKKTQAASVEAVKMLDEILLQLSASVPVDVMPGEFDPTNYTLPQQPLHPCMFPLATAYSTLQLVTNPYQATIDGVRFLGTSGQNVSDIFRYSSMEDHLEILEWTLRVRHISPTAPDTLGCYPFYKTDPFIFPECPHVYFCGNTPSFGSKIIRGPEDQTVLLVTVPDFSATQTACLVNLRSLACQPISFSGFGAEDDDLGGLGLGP
UniProt Q9H2U2: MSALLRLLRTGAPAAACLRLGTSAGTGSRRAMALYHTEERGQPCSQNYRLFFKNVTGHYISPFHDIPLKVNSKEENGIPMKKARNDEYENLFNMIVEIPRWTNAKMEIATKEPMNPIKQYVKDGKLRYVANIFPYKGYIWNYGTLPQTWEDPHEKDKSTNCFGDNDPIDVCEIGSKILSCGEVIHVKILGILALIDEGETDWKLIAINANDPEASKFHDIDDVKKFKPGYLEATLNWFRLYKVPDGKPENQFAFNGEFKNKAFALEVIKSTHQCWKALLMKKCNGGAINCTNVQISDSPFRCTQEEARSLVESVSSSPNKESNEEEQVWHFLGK
UniProt Q15063: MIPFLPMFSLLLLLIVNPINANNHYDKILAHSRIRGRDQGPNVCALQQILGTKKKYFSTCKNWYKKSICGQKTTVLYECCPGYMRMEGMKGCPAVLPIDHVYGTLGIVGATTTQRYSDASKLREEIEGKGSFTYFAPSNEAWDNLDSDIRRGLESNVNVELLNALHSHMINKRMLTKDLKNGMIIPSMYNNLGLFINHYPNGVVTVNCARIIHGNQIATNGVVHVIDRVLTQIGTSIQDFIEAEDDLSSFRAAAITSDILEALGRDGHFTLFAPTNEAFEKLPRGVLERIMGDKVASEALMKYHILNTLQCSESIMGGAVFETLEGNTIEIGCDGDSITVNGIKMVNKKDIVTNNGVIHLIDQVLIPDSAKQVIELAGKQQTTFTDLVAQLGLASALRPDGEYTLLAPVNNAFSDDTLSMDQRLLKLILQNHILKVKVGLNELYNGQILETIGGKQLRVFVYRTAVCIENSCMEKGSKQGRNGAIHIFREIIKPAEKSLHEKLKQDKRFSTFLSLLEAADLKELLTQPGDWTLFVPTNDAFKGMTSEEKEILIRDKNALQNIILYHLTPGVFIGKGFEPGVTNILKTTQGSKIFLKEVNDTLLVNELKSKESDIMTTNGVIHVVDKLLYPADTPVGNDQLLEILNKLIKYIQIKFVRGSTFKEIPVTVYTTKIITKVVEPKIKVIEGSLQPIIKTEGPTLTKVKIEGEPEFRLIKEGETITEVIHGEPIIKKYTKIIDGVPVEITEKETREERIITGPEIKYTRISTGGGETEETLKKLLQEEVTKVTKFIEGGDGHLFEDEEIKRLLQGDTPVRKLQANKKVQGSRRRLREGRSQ
UniProt Q9Y535: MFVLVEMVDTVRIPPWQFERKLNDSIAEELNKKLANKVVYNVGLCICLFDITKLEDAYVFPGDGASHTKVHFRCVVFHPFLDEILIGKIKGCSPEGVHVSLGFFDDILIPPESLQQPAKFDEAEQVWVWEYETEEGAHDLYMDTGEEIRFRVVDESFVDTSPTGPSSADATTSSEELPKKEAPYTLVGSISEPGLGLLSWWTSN
UniProt Q8WZA1: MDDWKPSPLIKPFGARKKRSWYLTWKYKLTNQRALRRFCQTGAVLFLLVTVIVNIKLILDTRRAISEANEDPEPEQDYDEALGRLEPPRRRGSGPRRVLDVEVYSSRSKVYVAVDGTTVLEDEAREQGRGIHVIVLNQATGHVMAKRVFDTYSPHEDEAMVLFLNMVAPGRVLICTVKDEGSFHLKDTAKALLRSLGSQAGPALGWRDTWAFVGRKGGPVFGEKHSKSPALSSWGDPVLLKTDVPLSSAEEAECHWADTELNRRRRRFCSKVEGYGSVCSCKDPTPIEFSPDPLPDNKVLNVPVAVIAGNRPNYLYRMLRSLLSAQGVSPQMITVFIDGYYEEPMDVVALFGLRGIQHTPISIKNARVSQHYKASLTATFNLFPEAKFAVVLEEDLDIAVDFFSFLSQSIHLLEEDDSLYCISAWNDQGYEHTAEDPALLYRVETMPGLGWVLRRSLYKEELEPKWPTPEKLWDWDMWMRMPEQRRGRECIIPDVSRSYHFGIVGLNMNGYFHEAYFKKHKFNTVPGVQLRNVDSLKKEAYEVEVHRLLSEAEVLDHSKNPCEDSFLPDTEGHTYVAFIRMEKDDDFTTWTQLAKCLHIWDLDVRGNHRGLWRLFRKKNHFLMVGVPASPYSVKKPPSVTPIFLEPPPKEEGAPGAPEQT
UniProt Q8NBL1: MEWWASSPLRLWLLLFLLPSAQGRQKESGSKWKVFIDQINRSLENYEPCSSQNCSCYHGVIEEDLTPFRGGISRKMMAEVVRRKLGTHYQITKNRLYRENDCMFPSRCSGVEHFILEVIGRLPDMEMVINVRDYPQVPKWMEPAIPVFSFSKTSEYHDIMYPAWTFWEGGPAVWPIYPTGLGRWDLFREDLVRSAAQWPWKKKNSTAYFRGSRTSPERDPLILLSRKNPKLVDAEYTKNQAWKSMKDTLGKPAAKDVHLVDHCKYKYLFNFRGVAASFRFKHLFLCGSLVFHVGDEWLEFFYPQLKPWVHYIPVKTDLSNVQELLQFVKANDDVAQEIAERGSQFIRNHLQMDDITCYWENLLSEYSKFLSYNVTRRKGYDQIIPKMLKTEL
UniProt O15160, whole entry, looked up: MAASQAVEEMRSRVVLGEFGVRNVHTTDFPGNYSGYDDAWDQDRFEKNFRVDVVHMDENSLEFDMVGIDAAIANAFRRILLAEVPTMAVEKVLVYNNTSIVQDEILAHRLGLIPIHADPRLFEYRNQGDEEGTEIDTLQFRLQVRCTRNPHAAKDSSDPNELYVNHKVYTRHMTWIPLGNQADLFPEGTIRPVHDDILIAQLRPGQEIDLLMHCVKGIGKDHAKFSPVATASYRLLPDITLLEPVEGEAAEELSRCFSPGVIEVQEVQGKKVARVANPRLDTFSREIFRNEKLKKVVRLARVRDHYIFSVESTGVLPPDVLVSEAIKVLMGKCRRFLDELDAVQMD
UniProt Q15054: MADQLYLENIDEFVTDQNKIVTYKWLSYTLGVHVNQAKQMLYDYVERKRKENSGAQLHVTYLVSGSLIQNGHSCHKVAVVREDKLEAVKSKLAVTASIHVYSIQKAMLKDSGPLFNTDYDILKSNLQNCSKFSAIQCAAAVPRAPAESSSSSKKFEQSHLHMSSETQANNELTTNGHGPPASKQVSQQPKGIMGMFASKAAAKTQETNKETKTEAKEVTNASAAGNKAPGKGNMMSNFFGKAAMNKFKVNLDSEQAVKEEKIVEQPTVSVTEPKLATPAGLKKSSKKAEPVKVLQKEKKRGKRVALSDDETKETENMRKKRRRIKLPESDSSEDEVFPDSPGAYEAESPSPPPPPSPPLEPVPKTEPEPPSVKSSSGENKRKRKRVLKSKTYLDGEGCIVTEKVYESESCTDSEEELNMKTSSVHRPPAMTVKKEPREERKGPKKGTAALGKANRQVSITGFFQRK

The list shows a part of the results.
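Further: competitive profiling in live THP-1 cells: cysteine peptides tagged with an iodoacetamide desthiobiotin (IA-DTB) probe, intensity after compound treatment relative to DMSO-treated cells.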

Compound in the first test: Cc1cc(ccc1-c1ccccc1)C(=O)N1CCCN(CC1)C(=O)CCl [compound 10]
Briefly: probe-labelled cysteine peptide fold change vs DMSO (competition) (log2 fold change); higher = less target engagement (more negative = stronger competition). To be noted: 10 µM; THP-1; incubation time: 4 h.
With “POLR1A_O95602_746_EGELLCGVLDK (UniProt O95602)”, the “probe-labelled cysteine peptide fold change” value is -0.0729.

Regarding “POLR2E_P19388_21_TIMQLCHDR (UniProt P19388)”, the “probe-labelled cysteine peptide fold change” value was 0.284.

In the case of “PPIP5K1_Q6PFW1_627_SANMNGLLDSDGDSLSSCQHR (UniProt Q6PFW1)”, the “probe-labelled cysteine peptide fold change” value is -0.385.

“POLR2J_P52435_31_VPNACLFTINK (UniProt P52435)”: the “probe-labelled cysteine peptide fold change” value was -0.0533.

Consider “PPFIBP2_Q8ND30_685_CAIHVLHVNK (UniProt Q8ND30)”, for which the “probe-labelled cysteine peptide fold change” value is -0.0182.

As for “PPCDC_Q96CD2_116_VASGICDNLLTCVMR (UniProt Q96CD2)”, the “probe-labelled cysteine peptide fold change” value was -0.0267.

As to “POLR2I_P36954_86_TEDHPCQK (UniProt P36954)”, the “probe-labelled cysteine peptide fold change” value is -0.0596.

For the target “POLA2_Q14181_392_HEQVENCLLTSPFEDIFK (UniProt Q14181)”, the “probe-labelled cysteine peptide fold change” value amounted to 0.37.

Take “POP1_Q99575_283_ALSGMCNIDTGLTFAAVHCLSGK (UniProt Q99575)”: the “probe-labelled cysteine peptide fold change” value was -0.125.

Turning to “POLR2B_P30876_572_IFVNGCWVGIHK (UniProt P30876)”, the “probe-labelled cysteine peptide fold change” value was -0.0781.

As for “POLR2K_P53803_22_QQPMIYICGECHTENEIK (UniProt P53803)”, the “probe-labelled cysteine peptide fold change” value is -0.0834.

As for “POLD2_P49005_92_CCVVGTLFK (UniProt P49005)”, the “probe-labelled cysteine peptide fold change” value turned out to be 0.038.

In the case of “PPA2_Q9H2U2_302_CTQEEAR (UniProt Q9H2U2)”, the “probe-labelled cysteine peptide fold change” value is -0.0316.

With “POSTN_Q15063_80_TTVLYECCPGYMR (UniProt Q15063)”, the “probe-labelled cysteine peptide fold change” value was -0.264.

Turning to “PPAN_Q9NQ55_73_DCVAVAGPLGVTHFLILSK (UniProt Q9NQ55)”, the “probe-labelled cysteine peptide fold change” value was -0.357.

As to “POLR3H_Q9Y535_74_CVVFHPFLDEILIGK (UniProt Q9Y535)”, the “probe-labelled cysteine peptide fold change” value is 0.244.

As to “POMGNT1_Q8WZA1_562_NPCEDSFLPDTEGHTYVAFIR (UniProt Q8WZA1)”, the “probe-labelled cysteine peptide fold change” value is -0.268.

With “POT1_Q9NUX5_329_CQQLSATILTDHQYLER (UniProt Q9NUX5)”, the “probe-labelled cysteine peptide fold change” value turned out to be 0.149.

Turning to “POU2F2_P09086_187_CLEPPSHPEEPSDLEELEQFAR (UniProt P09086)”, the “probe-labelled cysteine peptide fold change” value is -0.342.

Take “PPIG_Q13427_310_ERECNPPNSQPASYQR (UniProt Q13427)”: the “probe-labelled cysteine peptide fold change” value is -0.167.

Consider “POLR1B_Q9H9Y6_847_ENCVVDNIK (UniProt Q9H9Y6)”, for which the “probe-labelled cysteine peptide fold change” value was -0.0384.

Take “PPAT_Q06203_496_HDIMIQENGNGLECFEK (UniProt Q06203)”: the “probe-labelled cysteine peptide fold change” value is -0.381.

As to “PPA2_Q9H2U2_161_STNCFGDNDPIDVCEIGSK (UniProt Q9H2U2)”, the “probe-labelled cysteine peptide fold change” value came to 0.0149.

Take “POLRMT_O00411_925_ASDPAAYVSHLPVHQDGSCNGLQHYAALGR (UniProt O00411)”: the “probe-labelled cysteine peptide fold change” value is -0.143.

Consider “POGLUT1_Q8NBL1_108_CSGVEHFILEVIGR (UniProt Q8NBL1)”, for which the “probe-labelled cysteine peptide fold change” value was 0.149.

“PPIG_Q13427_174_ILSCGELIPK (UniProt Q13427)”: the “probe-labelled cysteine peptide fold change” value was -0.121.

For the target “PON2_Q15165_283_VLELDTLVDNLSIDPSSGDIWVGCHPNGQK (UniProt Q15165)”, the “probe-labelled cysteine peptide fold change” value stood at 0.139.

As for “POLR1C_O15160_256_CFSPGVIEVQEVQGK (UniProt O15160)”, the “probe-labelled cysteine peptide fold change” value was -0.187.

As for “POP1_Q99575_706_LGTLAPFCCPWEQLTQDWESR (UniProt Q99575)”, the “probe-labelled cysteine peptide fold change” value was -0.246.

Turning to “POGZ_Q7Z3K3_1230_GMLVMDCHR (UniProt Q7Z3K3)”, the “probe-labelled cysteine peptide fold change” value was -0.055.

Turning to “PPA2_Q9H2U2_44_GQPCSQNYR (UniProt Q9H2U2)”, the “probe-labelled cysteine peptide fold change” value is -0.17.

On to “POLR1A_O95602_822_IIEESTHCGPQAVR (UniProt O95602)”, for which the “probe-labelled cysteine peptide fold change” value stood at 0.032.

Turning to “PPIG_Q13427_310_ECNPPNSQPASYQR (UniProt Q13427)”, the “probe-labelled cysteine peptide fold change” value was -0.0237.

Regarding “POLQ_O75417_2411_ENDAACYIDSFK (UniProt O75417)”, the “probe-labelled cysteine peptide fold change” value is -0.0783.

As to “POLD3_Q15054_398_TYLDGEGCIVTEK (UniProt Q15054)”, the “probe-labelled cysteine peptide fold change” value is -0.0882.

With “POP1_Q99575_804_ITDQEASENHVAATGSHLCVLR (UniProt Q99575)”, the “probe-labelled cysteine peptide fold change” value was -0.282.

On to “POP1_Q99575_471_WWIETCK (UniProt Q99575)”, for which the “probe-labelled cysteine peptide fold change” value was -0.0637.

Still in this test, the particulars now being: 50 µM; THP-1; incubation time: 4 h.
“POLR1A_O95602_746_EGELLCGVLDK (UniProt O95602)”: the “probe-labelled cysteine peptide fold change” value was 0.0869.

In the case of “POLR2E_P19388_21_TIMQLCHDR (UniProt P19388)”, the “probe-labelled cysteine peptide fold change” value is 0.262.

For the target “PPIP5K1_Q6PFW1_627_SANMNGLLDSDGDSLSSCQHR (UniProt Q6PFW1)”, the “probe-labelled cysteine peptide fold change” value was -0.406.

As for “POLR2J_P52435_31_VPNACLFTINK (UniProt P52435)”, the “probe-labelled cysteine peptide fold change” value was -0.0404.

As to “PPFIBP2_Q8ND30_685_CAIHVLHVNK (UniProt Q8ND30)”, the “probe-labelled cysteine peptide fold change” value is 0.38.

With “PPCDC_Q96CD2_116_VASGICDNLLTCVMR (UniProt Q96CD2)”, the “probe-labelled cysteine peptide fold change” value is -0.191.

On to “POLR2I_P36954_86_TEDHPCQK (UniProt P36954)”, for which the “probe-labelled cysteine peptide fold change” value was -0.379.

For the target “POLA2_Q14181_392_HEQVENCLLTSPFEDIFK (UniProt Q14181)”, the “probe-labelled cysteine peptide fold change” value is -0.0478.

Consider “POP1_Q99575_283_ALSGMCNIDTGLTFAAVHCLSGK (UniProt Q99575)”, for which the “probe-labelled cysteine peptide fold change” value is -0.377.

For “POLR2B_P30876_572_IFVNGCWVGIHK (UniProt P30876)”, the “probe-labelled cysteine peptide fold change” value was found to be 0.748.

Consider “POLR2K_P53803_22_QQPMIYICGECHTENEIK (UniProt P53803)”, for which the “probe-labelled cysteine peptide fold change” value is -0.286.

For the target “POLD2_P49005_92_CCVVGTLFK (UniProt P49005)”, the “probe-labelled cysteine peptide fold change” value was -0.162.

In the case of “PPA2_Q9H2U2_302_CTQEEAR (UniProt Q9H2U2)”, the “probe-labelled cysteine peptide fold change” value turned out to be 0.0564.

Turning to “POSTN_Q15063_80_TTVLYECCPGYMR (UniProt Q15063)”, the “probe-labelled cysteine peptide fold change” value is -0.302.

In the case of “PPAN_Q9NQ55_73_DCVAVAGPLGVTHFLILSK (UniProt Q9NQ55)”, the “probe-labelled cysteine peptide fold change” value is 0.496.

“POLR3H_Q9Y535_74_CVVFHPFLDEILIGK (UniProt Q9Y535)”: the “probe-labelled cysteine peptide fold change” value is -0.183.

As to “POMGNT1_Q8WZA1_562_NPCEDSFLPDTEGHTYVAFIR (UniProt Q8WZA1)”, the “probe-labelled cysteine peptide fold change” value amounted to 0.11.

With “POT1_Q9NUX5_329_CQQLSATILTDHQYLER (UniProt Q9NUX5)”, the “probe-labelled cysteine peptide fold change” value was -0.0324.

With “POU2F2_P09086_187_CLEPPSHPEEPSDLEELEQFAR (UniProt P09086)”, the “probe-labelled cysteine peptide fold change” value is -0.433.

Consider “PPIG_Q13427_310_ERECNPPNSQPASYQR (UniProt Q13427)”, for which the “probe-labelled cysteine peptide fold change” value is -0.3.

For the target “POLR1B_Q9H9Y6_847_ENCVVDNIK (UniProt Q9H9Y6)”, the “probe-labelled cysteine peptide fold change” value turned out to be 0.0887.

Turning to “PPAT_Q06203_496_HDIMIQENGNGLECFEK (UniProt Q06203)”, the “probe-labelled cysteine peptide fold change” value stood at 0.0276.

For the target “PPA2_Q9H2U2_161_STNCFGDNDPIDVCEIGSK (UniProt Q9H2U2)”, the “probe-labelled cysteine peptide fold change” value was -0.00969.

Regarding “POLRMT_O00411_925_ASDPAAYVSHLPVHQDGSCNGLQHYAALGR (UniProt O00411)”, the “probe-labelled cysteine peptide fold change” value is -0.16.

On to “POGLUT1_Q8NBL1_108_CSGVEHFILEVIGR (UniProt Q8NBL1)”, for which the “probe-labelled cysteine peptide fold change” value is -0.0627.

On to “PPIG_Q13427_174_ILSCGELIPK (UniProt Q13427)”, for which the “probe-labelled cysteine peptide fold change” value was -0.315.

In the case of “PON2_Q15165_283_VLELDTLVDNLSIDPSSGDIWVGCHPNGQK (UniProt Q15165)”, the “probe-labelled cysteine peptide fold change” value worked out at 0.16.

Turning to “POLR1C_O15160_256_CFSPGVIEVQEVQGK (UniProt O15160)”, the “probe-labelled cysteine peptide fold change” value is 0.0602.

For the target “POP1_Q99575_706_LGTLAPFCCPWEQLTQDWESR (UniProt Q99575)”, the “probe-labelled cysteine peptide fold change” value was -0.686.

With “POGZ_Q7Z3K3_1230_GMLVMDCHR (UniProt Q7Z3K3)”, the “probe-labelled cysteine peptide fold change” value was -0.17.

Turning to “PPA2_Q9H2U2_44_GQPCSQNYR (UniProt Q9H2U2)”, the “probe-labelled cysteine peptide fold change” value is -0.0246.

In the case of “POLR1A_O95602_822_IIEESTHCGPQAVR (UniProt O95602)”, the “probe-labelled cysteine peptide fold change” value came to 0.0541.

On to “PPIG_Q13427_310_ECNPPNSQPASYQR (UniProt Q13427)”, for which the “probe-labelled cysteine peptide fold change” value is -0.0502.

As for “POLQ_O75417_2411_ENDAACYIDSFK (UniProt O75417)”, the “probe-labelled cysteine peptide fold change” value is -0.0606.

On to “POLD3_Q15054_398_TYLDGEGCIVTEK (UniProt Q15054)”, for which the “probe-labelled cysteine peptide fold change” value is -0.0456.

Take “POP1_Q99575_804_ITDQEASENHVAATGSHLCVLR (UniProt Q99575)”: the “probe-labelled cysteine peptide fold change” value is -0.409.

Regarding “POP1_Q99575_471_WWIETCK (UniProt Q99575)”, the “probe-labelled cysteine peptide fold change” value is -0.11.
